PubChem BioAssay AID1159584, Peter MacCallum Cancer Centre, 2016
The deposit covers about 18,000 reagents; shown is a random part of them. Not all columns of the deposit are shown. No sequences are given here. Not given: the amount of reagent, the time to read-out.

- Test: 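Genes that CDH1-null MCF10A cells selectively depend on to survive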 (primary screen)
- Cells: human MCF10A breast epithelial cells, parental and CDH1-null
- Knock-down reagent: siRNA against human genes
- Measurement: 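Cell viability by CellTiter-Glo ATP luminescence, each line scaled to the mean of mock wells across plates, then CDH1-null over parental ratio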
- Scale: CDH1-null / parental viability ratio: higher = CDH1-null cells survive relatively better than parental

| target gene | CDH1-null / parental viability ratio |
| --- | --- |
| RNH1 | 0.99 |
| TSPAN31 | 0.86 |
| TPSG1 | 1.06 |
| GLYATL2 | 0.88 |
| TSSC4 | 0.89 |
| ZNF761 | 1.33 |
| PHF11 | 0.94 |
| OPRM1 | 1.54 |
| ELOVL2 | 1.11 |
| PTCHD4 | 0.97 |
| WHAMM | 0.71 |
| VNN2 | 1.11 |
| SNRNP27 | 1.03 |
| PRKG1 | 0.99 |
| PDF | 1.27 |
| HPR | 1.1 |
| OR2M5 | 0.75 |
| GATB | 0.69 |
| CYBB | 1.01 |
| RASA4 | 1.03 |
| CLEC17A | 0.74 |
| ACP7 | 0.81 |
| SLC51A | 1.09 |
| TK1 | 1.1 |
| OR11H4 | 1.04 |
| TMPRSS2 | 1.16 |
| HOXC10 | 0.88 |
| KRT15 | 1.24 |
| SLC68A1 | 1.02 |

Records listed so far whose gene name starts with T or t (5):
| target gene | CDH1-null / parental viability ratio |
| --- | --- |
| TSPAN31 | 0.86 |
| TPSG1 | 1.06 |
| TSSC4 | 0.89 |
| TK1 | 1.1 |
| TMPRSS2 | 1.16 |

Further reagents follow.
| target gene | CDH1-null / parental viability ratio |
| --- | --- |
| NKAIN4 | 1.53 |
| CFC1 | 1.15 |
| SLC2A2 | 0.88 |
| GRHL3 | 1.08 |
| NPFFR2 | 1.27 |
| H4C11 | 0.92 |
| MESP1 | 0.72 |
| GAL3ST2 | 0.81 |
| SIRPA | 1.1 |
| KCNJ1 | 1.33 |
| ACTB | 1.38 |
| RAB4A | 1.29 |
| SWT1 | 1 |
| CYRIA | 0.88 |
| MAT1A | 0.95 |
| FIGLA | 0.94 |
| DIO1 | 1.14 |
